Reference: the supplement of paper PMC10849652
This is one part of the list.

Chains of the proteins cited; added tags and fusions are not shown. Lines headed by an entry give the natural chain unless they say otherwise; changes in a name come on top.
UniProt Q5VZ89: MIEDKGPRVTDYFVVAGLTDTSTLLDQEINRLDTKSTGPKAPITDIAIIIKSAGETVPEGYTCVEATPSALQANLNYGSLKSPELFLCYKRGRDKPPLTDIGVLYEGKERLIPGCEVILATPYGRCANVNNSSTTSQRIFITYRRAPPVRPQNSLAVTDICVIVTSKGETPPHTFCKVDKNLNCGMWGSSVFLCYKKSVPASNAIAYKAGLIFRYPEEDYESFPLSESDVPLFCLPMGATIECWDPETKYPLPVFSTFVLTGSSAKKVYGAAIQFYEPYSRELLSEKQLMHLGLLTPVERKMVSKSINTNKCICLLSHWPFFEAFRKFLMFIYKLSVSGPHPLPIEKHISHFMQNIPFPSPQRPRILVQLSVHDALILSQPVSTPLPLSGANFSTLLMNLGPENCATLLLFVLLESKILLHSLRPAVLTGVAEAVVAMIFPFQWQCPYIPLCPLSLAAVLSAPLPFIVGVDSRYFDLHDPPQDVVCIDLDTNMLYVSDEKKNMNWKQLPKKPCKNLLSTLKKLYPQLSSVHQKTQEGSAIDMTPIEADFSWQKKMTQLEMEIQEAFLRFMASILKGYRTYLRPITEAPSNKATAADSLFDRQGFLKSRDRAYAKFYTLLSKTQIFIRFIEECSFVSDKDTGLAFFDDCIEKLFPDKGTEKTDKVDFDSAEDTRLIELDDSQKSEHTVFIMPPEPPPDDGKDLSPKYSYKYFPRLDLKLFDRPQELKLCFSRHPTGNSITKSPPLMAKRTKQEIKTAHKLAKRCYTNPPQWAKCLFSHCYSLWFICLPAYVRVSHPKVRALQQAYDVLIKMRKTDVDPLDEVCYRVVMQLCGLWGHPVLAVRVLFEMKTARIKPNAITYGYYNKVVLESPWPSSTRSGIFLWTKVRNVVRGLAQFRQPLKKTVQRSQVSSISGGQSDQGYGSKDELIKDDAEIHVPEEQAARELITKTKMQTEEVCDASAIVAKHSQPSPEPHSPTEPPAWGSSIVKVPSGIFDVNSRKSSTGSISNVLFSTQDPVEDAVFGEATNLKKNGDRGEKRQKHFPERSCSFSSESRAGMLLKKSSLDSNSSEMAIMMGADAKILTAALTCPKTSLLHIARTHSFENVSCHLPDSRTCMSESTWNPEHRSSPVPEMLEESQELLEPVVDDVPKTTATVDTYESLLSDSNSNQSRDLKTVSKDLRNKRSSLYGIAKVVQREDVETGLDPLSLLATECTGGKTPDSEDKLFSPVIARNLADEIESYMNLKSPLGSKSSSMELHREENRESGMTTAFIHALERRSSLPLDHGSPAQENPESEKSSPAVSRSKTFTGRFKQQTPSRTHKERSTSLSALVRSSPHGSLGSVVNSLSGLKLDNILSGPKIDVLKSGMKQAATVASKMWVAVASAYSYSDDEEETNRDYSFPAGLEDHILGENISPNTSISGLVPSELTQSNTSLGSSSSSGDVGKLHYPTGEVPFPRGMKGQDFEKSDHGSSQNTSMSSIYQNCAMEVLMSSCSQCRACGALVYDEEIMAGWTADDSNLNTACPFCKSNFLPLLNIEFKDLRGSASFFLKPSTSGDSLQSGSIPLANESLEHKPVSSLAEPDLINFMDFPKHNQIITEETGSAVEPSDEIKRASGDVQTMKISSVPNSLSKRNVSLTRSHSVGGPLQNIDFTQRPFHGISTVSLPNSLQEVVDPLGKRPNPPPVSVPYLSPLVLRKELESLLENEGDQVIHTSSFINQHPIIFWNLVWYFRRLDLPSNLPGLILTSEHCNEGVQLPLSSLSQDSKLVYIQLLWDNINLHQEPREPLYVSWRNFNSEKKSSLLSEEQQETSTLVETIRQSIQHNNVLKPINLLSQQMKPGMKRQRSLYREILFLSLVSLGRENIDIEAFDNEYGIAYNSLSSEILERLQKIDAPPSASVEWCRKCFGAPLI
UniProt Q16643: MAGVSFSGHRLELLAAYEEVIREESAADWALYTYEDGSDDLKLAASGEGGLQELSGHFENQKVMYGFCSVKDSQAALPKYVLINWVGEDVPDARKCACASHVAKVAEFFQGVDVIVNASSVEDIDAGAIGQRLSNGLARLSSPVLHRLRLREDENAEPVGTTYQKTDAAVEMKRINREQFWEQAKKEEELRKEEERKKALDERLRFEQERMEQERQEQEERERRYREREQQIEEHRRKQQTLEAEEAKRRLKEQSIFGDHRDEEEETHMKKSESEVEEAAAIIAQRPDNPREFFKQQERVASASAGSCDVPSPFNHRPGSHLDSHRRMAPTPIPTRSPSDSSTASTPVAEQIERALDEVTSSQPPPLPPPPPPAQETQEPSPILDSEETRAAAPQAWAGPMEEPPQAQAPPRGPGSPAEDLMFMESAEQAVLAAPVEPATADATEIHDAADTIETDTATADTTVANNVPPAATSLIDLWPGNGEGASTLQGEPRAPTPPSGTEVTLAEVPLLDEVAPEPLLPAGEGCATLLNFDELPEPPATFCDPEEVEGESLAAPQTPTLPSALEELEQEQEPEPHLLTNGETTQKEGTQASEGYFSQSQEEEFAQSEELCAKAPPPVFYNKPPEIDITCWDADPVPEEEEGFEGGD
UniProt Q8N465: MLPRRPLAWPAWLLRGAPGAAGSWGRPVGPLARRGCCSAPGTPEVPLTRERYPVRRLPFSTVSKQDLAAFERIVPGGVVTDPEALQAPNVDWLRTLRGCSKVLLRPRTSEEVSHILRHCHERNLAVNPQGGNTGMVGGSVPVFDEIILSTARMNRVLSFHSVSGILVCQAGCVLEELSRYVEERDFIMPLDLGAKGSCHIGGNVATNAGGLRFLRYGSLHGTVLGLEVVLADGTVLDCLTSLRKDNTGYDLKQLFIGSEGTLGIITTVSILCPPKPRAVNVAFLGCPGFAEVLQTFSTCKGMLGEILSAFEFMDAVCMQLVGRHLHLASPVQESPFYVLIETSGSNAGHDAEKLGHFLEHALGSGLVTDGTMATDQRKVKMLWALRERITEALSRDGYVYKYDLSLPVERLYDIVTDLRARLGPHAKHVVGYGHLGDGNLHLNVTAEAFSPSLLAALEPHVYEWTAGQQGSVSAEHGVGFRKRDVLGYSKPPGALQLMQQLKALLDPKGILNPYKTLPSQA
UniProt Q13838, whole entry, looked up: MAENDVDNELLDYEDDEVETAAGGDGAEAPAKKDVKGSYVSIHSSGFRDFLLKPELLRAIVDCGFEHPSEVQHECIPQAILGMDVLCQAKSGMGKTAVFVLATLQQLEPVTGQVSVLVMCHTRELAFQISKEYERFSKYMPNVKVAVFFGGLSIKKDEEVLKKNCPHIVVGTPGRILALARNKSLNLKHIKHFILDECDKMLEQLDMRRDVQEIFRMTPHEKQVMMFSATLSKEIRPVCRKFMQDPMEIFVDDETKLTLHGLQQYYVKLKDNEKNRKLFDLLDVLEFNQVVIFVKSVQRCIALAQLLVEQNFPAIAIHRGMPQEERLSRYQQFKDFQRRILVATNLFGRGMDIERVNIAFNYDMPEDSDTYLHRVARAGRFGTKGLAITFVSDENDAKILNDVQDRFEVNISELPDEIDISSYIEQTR
UniProt Q92466: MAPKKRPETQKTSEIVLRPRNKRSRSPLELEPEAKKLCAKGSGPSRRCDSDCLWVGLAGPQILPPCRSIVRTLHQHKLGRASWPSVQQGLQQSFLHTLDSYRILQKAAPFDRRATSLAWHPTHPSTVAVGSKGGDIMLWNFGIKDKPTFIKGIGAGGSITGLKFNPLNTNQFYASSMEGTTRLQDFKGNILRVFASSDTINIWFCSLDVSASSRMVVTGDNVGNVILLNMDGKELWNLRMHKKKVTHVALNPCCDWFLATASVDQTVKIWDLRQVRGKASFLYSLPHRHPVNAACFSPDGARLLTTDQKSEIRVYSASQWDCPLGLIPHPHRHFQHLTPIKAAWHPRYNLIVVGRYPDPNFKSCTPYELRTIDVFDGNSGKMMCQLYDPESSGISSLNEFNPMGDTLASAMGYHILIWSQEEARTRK
UniProt Q5T1V6: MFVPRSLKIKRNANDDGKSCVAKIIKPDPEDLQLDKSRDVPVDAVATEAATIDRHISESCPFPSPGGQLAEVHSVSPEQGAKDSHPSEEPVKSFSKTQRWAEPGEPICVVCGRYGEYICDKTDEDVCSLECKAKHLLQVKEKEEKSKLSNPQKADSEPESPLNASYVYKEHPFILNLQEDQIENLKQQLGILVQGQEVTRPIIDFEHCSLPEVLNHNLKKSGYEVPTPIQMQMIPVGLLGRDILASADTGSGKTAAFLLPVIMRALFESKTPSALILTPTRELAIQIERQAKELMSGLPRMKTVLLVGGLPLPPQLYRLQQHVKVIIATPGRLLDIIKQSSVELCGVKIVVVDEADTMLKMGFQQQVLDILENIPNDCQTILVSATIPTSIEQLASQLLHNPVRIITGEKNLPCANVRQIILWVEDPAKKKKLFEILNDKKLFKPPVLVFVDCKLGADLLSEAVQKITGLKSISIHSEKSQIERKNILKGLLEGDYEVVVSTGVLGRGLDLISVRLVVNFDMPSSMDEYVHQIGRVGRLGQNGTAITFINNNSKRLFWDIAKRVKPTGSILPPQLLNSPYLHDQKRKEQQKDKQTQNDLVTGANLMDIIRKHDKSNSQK
UniProt P61803: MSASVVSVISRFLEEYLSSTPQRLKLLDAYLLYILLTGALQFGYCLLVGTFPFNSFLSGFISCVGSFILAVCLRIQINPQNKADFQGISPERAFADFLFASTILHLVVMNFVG
UniProt P27707: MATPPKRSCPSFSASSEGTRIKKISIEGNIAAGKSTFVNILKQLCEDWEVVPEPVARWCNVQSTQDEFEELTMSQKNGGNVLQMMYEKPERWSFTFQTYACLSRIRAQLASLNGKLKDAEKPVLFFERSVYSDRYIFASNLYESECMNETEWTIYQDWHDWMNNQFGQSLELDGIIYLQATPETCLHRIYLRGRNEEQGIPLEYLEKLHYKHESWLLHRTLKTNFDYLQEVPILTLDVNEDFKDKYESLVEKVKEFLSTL
UniProt Q9NPI6: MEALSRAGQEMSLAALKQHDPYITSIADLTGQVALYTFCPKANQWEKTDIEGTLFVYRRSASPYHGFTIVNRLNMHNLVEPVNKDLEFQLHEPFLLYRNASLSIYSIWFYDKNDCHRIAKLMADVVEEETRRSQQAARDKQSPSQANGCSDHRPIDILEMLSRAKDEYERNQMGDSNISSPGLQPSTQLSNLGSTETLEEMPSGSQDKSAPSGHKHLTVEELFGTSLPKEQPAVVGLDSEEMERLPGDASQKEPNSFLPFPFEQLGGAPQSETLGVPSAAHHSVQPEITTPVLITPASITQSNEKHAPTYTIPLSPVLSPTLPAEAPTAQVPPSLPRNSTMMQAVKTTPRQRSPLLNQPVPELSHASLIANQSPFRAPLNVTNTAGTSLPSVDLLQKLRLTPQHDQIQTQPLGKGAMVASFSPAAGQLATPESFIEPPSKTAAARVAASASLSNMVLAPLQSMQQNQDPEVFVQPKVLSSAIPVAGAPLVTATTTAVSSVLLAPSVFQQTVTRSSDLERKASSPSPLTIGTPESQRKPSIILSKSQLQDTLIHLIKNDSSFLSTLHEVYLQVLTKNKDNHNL
UniProt Q5TAQ9: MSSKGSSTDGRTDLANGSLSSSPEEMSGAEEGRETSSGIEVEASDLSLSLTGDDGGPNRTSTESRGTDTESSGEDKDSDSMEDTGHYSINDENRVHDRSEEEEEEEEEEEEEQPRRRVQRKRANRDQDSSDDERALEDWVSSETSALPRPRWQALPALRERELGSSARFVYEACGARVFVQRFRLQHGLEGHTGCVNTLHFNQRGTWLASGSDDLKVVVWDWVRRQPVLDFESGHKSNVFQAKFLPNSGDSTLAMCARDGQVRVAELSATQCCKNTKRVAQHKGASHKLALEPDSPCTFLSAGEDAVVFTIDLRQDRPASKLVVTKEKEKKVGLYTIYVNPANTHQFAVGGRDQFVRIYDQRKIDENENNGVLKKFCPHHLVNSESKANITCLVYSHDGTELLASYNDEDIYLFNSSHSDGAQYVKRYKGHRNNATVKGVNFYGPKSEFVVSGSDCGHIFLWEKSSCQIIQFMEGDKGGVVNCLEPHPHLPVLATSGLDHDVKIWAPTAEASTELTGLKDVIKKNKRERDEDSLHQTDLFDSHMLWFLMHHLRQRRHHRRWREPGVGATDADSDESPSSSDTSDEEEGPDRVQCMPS
UniProt P26196: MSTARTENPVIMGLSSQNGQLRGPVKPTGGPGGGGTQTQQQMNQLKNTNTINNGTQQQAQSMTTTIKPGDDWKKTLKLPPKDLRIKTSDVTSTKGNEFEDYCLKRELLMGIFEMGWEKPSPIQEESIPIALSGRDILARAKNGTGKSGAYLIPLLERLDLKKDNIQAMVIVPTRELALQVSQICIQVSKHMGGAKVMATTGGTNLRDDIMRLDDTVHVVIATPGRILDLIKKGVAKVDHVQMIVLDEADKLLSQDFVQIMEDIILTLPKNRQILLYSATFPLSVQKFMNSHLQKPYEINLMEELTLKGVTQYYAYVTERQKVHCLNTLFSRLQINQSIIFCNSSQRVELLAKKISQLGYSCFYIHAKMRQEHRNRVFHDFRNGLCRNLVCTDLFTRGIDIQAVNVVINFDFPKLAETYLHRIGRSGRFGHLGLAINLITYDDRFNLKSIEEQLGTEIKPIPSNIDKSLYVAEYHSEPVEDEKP

The targets below were run with Cc1ncc(-c2ccnc(Nc3ccc(S(C)(=O)=O)cc3)n2)n1C(C)C (assay: log2 fold change, soluble protein after heating vs DMSO (PISA); higher = thermal stabilisation; K562 lysate, 10 uM; active = over 0.2 and 3.5 SD of the protein, either way, in both replicates (recomputed)).
Summary of the method: (§1)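 Pellets of K562 cells were dounce-homogenised in PBS pH 7.4 with 1 mM MgCl2, and the crude extract was held at 1 mg/mL protein for a 30 min treatment with 10 μM compound. Aliquots were heated for 3 min over 48°C-58°C and pooled before NP-40 was added to 0.5% at 4°C. The supernatant from 21,000xg for 90 min was quantified by TMTpro 16plex LC-MS/MS with channel sums equalised. Values are reported from duplicates as log-two fold change in thermal stability relative to solvent controls.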

log2 fold change, inactive:
DENND4C (UniProt Q5VZ89) 0.047
DEK (UniProt P35659) 0.007
DBN1 (UniProt Q16643) 0.011
DDX21 (UniProt Q9NR30) 0.003
DCTN5 (UniProt Q9BTE1) 0.037
D2HGDH (UniProt Q8N465) -0.084
DDX39B isoform 2 (UniProt Q13838) -0.007
DFFA isoform 2 (UniProt O00273) 0.09
DDB2 (UniProt Q92466) -0.044
DDX59 (UniProt Q5T1V6) -0.005
CYP51A1 (UniProt Q16850) 0.034
DEF6 (UniProt Q9H4E7) 0.033
DAD1 (UniProt P61803) 0.136
DERPC (UniProt P0CG12) 0.108
DDX39A (UniProt O00148) 0.007
DCTN1 (UniProt Q14203) 0.012
DDA1 (UniProt Q9BW61) -0.056
DCK (UniProt P27707) 0.077
DDT (UniProt P30046) -0.026
DERL2 (UniProt Q9GZP9) 0.008
DBR1 (UniProt Q9UK59) -0.003
DAGLB (UniProt Q8NCG7) -0.158
DARS2 (UniProt Q6PI48) -0.017
DCP1A (UniProt Q9NPI6) -0.023
DCAF8 (UniProt Q5TAQ9) -0.075
DDI2 isoform 3 (UniProt Q5TDH0) 0.026
DENND1B (UniProt Q6P3S1) -0.05
DDX1 (UniProt Q92499) 0
DAPK1 isoform 3 (UniProt P53355) -0.146
DERL1 (UniProt Q9BUN8) -0.009
DDX6 (UniProt P26196) 0.015
DENR (UniProt O43583) 0.007

Each target was assayed with Cn1cc(-c2ccc3c(c2)CCN3C(=O)Cc2cccc(C(F)(F)F)c2)c2c(N)ncnc21 in the same assay as above.
Summary of the method: as §1

log2 fold change, inactive:
DENND4C (UniProt Q5VZ89) 0.029
DEK (UniProt P35659) 0.011
DBN1 (UniProt Q16643) -0.016
DDX21 (UniProt Q9NR30) 0
DCTN5 (UniProt Q9BTE1) 0.002
D2HGDH (UniProt Q8N465) 0.047
DDX39B isoform 2 (UniProt Q13838) 0.001
DFFA isoform 2 (UniProt O00273) 0.003
DDB2 (UniProt Q92466) 0.02
DDX59 (UniProt Q5T1V6) -0.013
CYP51A1 (UniProt Q16850) 0.083
DEF6 (UniProt Q9H4E7) 0.006
DAD1 (UniProt P61803) -0.02
DERPC (UniProt P0CG12) -0.157
DDX39A (UniProt O00148) 0.06
DCTN1 (UniProt Q14203) 0.017
DDA1 (UniProt Q9BW61) 0.006
DCK (UniProt P27707) -0.007
DDT (UniProt P30046) -0.031
DERL2 (UniProt Q9GZP9) -0.028
DBR1 (UniProt Q9UK59) -0.007
DAGLB (UniProt Q8NCG7) 0.036
DARS2 (UniProt Q6PI48) 0.028
DCP1A (UniProt Q9NPI6) -0.001
DCAF8 (UniProt Q5TAQ9) 0.014
DDI2 isoform 3 (UniProt Q5TDH0) -0.038
DENND1B (UniProt Q6P3S1) -0.09
DDX1 (UniProt Q92499) 0.018
DAPK1 isoform 3 (UniProt P53355) -0.049
DERL1 (UniProt Q9BUN8) 0.022
DDX6 (UniProt P26196) -0.008
DENR (UniProt O43583) 0.016

These targets were tested with Cn1cc(CNCC2CCN(c3ncc(C(=O)NO)cn3)CC2)c2ccccc21 [quisinostat] in the same assay as above.
Summary of the method: as §1

log2 fold change, inactive:
DENND4C (UniProt Q5VZ89) -0.017
DEK (UniProt P35659) 0.008
DBN1 (UniProt Q16643) -0.011
DDX21 (UniProt Q9NR30) -0.005
DCTN5 (UniProt Q9BTE1) 0.019
D2HGDH (UniProt Q8N465) -0.007
DDX39B isoform 2 (UniProt Q13838) 0.034
DFFA isoform 2 (UniProt O00273) -0.013
DDB2 (UniProt Q92466) 0.028
DDX59 (UniProt Q5T1V6) 0.018
CYP51A1 (UniProt Q16850) -0.021
DEF6 (UniProt Q9H4E7) -0.044
DAD1 (UniProt P61803) -0.075
DERPC (UniProt P0CG12) 0.073
DDX39A (UniProt O00148) -0.018
DCTN1 (UniProt Q14203) 0.001
DDA1 (UniProt Q9BW61) -0.006
DCK (UniProt P27707) -0.06
DDT (UniProt P30046) 0.026
DERL2 (UniProt Q9GZP9) -0.069
DBR1 (UniProt Q9UK59) -0.011
DAGLB (UniProt Q8NCG7) 0.025
DARS2 (UniProt Q6PI48) 0
DCP1A (UniProt Q9NPI6) -0.042
DCAF8 (UniProt Q5TAQ9) -0.031
DDI2 isoform 3 (UniProt Q5TDH0) 0.013
DENND1B (UniProt Q6P3S1) -0.16
DDX1 (UniProt Q92499) -0.022
DAPK1 isoform 3 (UniProt P53355) -0.135
DERL1 (UniProt Q9BUN8) -0.035
DDX6 (UniProt P26196) 0.009
DENR (UniProt O43583) 0.105
